Measured values taken from publication PMC3938729.
These are yes or no findings as the source states them, for the method shown. In cells and extracts the contact can be indirect. Some binding calls cover weakened binding; strength is not graded here. Each block holds one molecule with its values, some of them ahead of it.

Amino acid sequences for entries named in this document (tags omitted).
UniProt P08670: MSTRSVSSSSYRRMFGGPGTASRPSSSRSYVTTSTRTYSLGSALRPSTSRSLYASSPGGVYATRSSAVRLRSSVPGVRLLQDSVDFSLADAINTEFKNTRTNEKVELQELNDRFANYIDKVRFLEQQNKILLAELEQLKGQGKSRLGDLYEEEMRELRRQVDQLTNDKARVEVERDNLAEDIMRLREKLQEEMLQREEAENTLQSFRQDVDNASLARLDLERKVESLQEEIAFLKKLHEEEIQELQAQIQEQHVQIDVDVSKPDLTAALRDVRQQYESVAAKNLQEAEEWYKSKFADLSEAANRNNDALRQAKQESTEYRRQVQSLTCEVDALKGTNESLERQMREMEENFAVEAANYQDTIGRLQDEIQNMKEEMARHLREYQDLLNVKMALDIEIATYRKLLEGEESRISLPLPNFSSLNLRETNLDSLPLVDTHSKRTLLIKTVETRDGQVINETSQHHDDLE

Legend:
[1] = biological target: T1, perilipin (human (endogenous in human preadipose cells)) (UniProt O60240); assay: co-IP; "OA Adipocytes" (AIM-stimulated and OA-treated preadipocytes); IP with perilipin antibodies, Western blotting; not shown
T1 sequence: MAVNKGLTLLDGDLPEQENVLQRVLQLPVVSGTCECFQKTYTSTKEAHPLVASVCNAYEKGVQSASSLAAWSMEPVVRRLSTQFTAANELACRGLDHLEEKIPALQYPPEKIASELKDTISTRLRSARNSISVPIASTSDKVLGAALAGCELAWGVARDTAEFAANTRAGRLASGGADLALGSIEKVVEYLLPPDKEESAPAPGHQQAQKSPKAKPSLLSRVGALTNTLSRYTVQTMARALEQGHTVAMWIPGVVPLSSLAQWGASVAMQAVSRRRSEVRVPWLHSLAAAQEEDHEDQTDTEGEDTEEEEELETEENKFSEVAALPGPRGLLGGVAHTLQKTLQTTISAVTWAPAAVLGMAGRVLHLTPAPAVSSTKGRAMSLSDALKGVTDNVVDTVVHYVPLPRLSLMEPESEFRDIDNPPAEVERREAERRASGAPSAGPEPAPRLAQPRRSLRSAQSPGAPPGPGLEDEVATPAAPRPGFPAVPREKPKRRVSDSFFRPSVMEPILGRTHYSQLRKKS

[2] = biological target: vimentin (human (endogenous in human preadipose cells)) (UniProt P08670); assay: cross-linking + co-IP; lysate supernatant cross-linked with 0.2 mM BM(PEG)2, 30 min, room temperature, before methanol precipitation and IP with mabs Peri112.17 or Vim3B4; Western blot with pab Peri-hNT
[3] = biological target: vimentin (human (endogenous in human preadipose cells)) (UniProt P08670); assay: co-IP; mabs Vim3B4 or Peri112.17 on protein G- or protein A-coated magnetic beads; lysate of briefly AIM-stimulated human preadipocytes (nitrogen cavitation, methanol-precipitated, dissolved in RIPA buffer); Western blot with pab Peri-hNT; control mab VE-cadherin

binding [1]: binds
Molecule: vimentin (from UniProt P08670 1-466)

binding [2]: binds | binding [3]: binds
B1: perilipin (protein, UniProt O60240 1-522)
chain: T1 sequence

binding [1]: binds
B2: TIP47 (protein, UniProt O60664 1-434)
chain: MSADGAEADGSTQVTVEEPVQQPSVVDRVASMPLISSTCDMVSAAYASTKESYPHIKTVCDAAEKGVRTLTAAAVSGAQPILSKLEPQIASASEYAHRGLDKLEENLPILQQPTEKVLADTKELVSSKVSGAQEMVSSAKDTVATQLSEAVDATRGAVQSGVDKTKSVVTGGVQSVMGSRLGQMVLSGVDTVLGKSEEWADNHLPLTDAELARIATSLDGFDVASVQQQRQEQSYFVRLGSLSERLRQHAYEHSLGKLRATKQRAQEALLQLSQVLSLMETVKQGVDQKLVEGQEKLHQMWLSWNQKQLQGPEKEPPKPEQVESRALTMFRDIAQQLQATCTSLGSSIQGLPTNVKDQVQQARRQVEDLQATFSSIHSFQDLSSSILAQSRERVASAREALDHMVEYVAQNTPVTWLVGPFAPGITEKAPEEKK
